Data as given in PubChem BioAssay AID504793 (Drosophila RNAi Screening Center, 2011)
In all, the deposit lists about 23,000 reagents; shown is an unselected part of those with a known target gene and a result. Of all reagents, 62 (0.27%) are marked active. 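Calls come from follow-up tests whose scores are not deposited, so confirmed genes may have low counts here; counts are not normalised per plate.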 Raw values are not corrected between plates. Reagents against one gene are numbered here. Names joined by + are all predicted targets of the reagent.

Assay: 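Knock-downs allowing continued mitosis even though DNA is damaged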 (primary screen)
Cells: Drosophila S2R+ cells
Reagent: long dsRNA against Drosophila genes, about 0.25 µg dsRNA per well
Time to read-out: 4 days of dsRNA, then 4 hours of drug before read-out
Challenge: doxorubicin 0.5 µM for 4 hours to cause double-strand breaks, in cells also given a low, harmless dose of dsRNA against nbs to sensitise the assay
Measurement: 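Mitotic index as the number of phospho-histone H3-positive cells in each well following doxorubicin, given as raw counts without normalisation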
Scale: mitotic cells: higher = more cells in mitosis, weaker G2 arrest
Active means: 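a call needs confirmation in secondary tests, with other dsRNAs and a check of mitotic timing without damage, not just a high primary count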
Meaning of the calls: active = confirmed in follow-up tests; inactive = not confirmed

target gene,reagent no.,"mitotic cells, replicate 1","mitotic cells, replicate 2",activity call
Vsx2,1,7,12,inactive
Vsx2,2,14,,inactive
Vsx2,3,15,,inactive
CG15563,1,8,,inactive
CG15563,2,6,,inactive
CG17472,1,4,,inactive
siz,1,5,,inactive
siz,2,4,,inactive
siz,3,8,,inactive
T3dh,1,5,,inactive
Alg1,1,7,,inactive
Alg1,2,4,,inactive
yellow-g2,1,6,,inactive
CG12128 + CG1407,1,2,,inactive
Or42a,1,4,,inactive
CG12994,1,11,,inactive
Gnptab,1,3,,inactive
Caf1-55,1,2,,inactive
CG1463,1,8,,inactive
Uba5,1,13,,inactive
CG4911,1,10,,inactive
pod1,1,6,,inactive
pod1,2,5,,inactive
CG32081,1,8,,inactive
CG1529,1,5,11,inactive
CG1529,2,10,,inactive
Cpr49Ab,1,3,,inactive
Cpr49Ab,2,6,,inactive
mRpL14,1,6,,inactive
mRpL14,2,6,,inactive
Fum1,1,6,13,inactive
Fum1,2,6,,inactive
dco,1,6,,inactive
dco,2,3,,inactive
Mvd,1,7,,inactive
CG10598,1,16,,inactive
CG10598,2,7,,inactive
Best3,1,,,inactive
Nepl6,1,9,,inactive
Nepl6,2,5,,inactive
CG33339,1,8,,inactive
CG33339,2,6,,inactive
scat,1,5,,inactive
scat,2,1,,inactive
Irp-1A,1,6,16,inactive
NSD,1,17,,inactive
CG11771,1,12,,inactive
CG11771,2,5,,inactive
AP-2mu,1,7,,inactive
AP-2mu,2,3,,inactive
CG33981 + fab1,1,10,,inactive
CG33981 + fab1,2,5,,inactive
mRpL28,1,4,,inactive
loaf,1,9,,inactive
Pdp,1,3,,inactive
Pdp,2,4,,inactive
Gr58b,1,4,,inactive
Erk7,1,11,,inactive
Erk7,2,13,,inactive
Erk7,3,7,,inactive
SWIP,1,5,,inactive

Just “mitotic cells, replicate 1”, for 15 of the entries above:
Alg1 #1	7
Alg1 #2	4
yellow-g2	6
CG12128 + CG1407	2
Or42a	4
CG12994	11
Gnptab	3
Caf1-55	2
CG1463	8
Uba5	13
CG4911	10
pod1 #1	6
pod1 #2	5
CG32081	8
CG1529 #1	5

More results follow:
target gene,reagent no.,"mitotic cells, replicate 1","mitotic cells, replicate 2",activity call
CG7387,1,9,,inactive
Rpt6R,1,8,,inactive
CG4210,1,10,,inactive
CG4210,2,5,,inactive
CG14974,1,9,,inactive
dmrt11E,1,24,,inactive
dmrt11E,2,9,,inactive
ppk29,1,3,,inactive
Syn2,1,5,,inactive
IntS14,1,3,,inactive
CG9294,1,4,,inactive
CG31206,1,6,,inactive
Pcp,1,8,,inactive
mex1,1,10,,inactive
Mon1,1,2,,inactive
Mon1,2,7,,inactive
CG8036,1,8,,inactive
CG34232,1,8,,inactive
atlas,1,6,,inactive
Hgsnat,1,3,,inactive
Hgsnat,2,3,,inactive
Uqcc1 + CG9948,1,6,,inactive
betaTub97EF,1,157,,inactive
betaTub97EF,2,12,,inactive
betaTub97EF,3,15,,inactive
Prosbeta2R1,1,12,,inactive
PIG-O,1,6,,inactive
CNBP,1,3,,inactive
CNBP,2,9,,inactive
CNBP,3,8,,inactive
Spt20,1,13,,inactive
Spt20,2,5,,inactive
Ugt35B1,1,3,,inactive
Ugt35B1,2,12,,inactive
dUTPase,1,,,inactive
dUTPase,2,2,,inactive
CG8526,1,5,,inactive
CG8526,2,6,,inactive
CG17636,1,7,,inactive
rho-5,1,10,,inactive
rho-5,2,9,,inactive
CG10996,1,9,,inactive
stnB + stnA,1,9,,inactive
stnB + stnA,2,27,4,inactive
stnB + stnA,3,7,,inactive
nAChRalpha7,1,8,,inactive
nAChRalpha7,2,9,,inactive
CG10949,1,1,,inactive
CG10949,2,10,,inactive
PGRP-SC1a + PGRP-SC1b,1,3,,inactive
lcs,1,9,,inactive
lcs,2,13,,inactive
Treh,1,2,,inactive
Treh,2,6,,inactive
OS9 + Hf,1,5,,inactive
Impbeta11,1,4,,inactive
ND-24,1,4,,inactive
Prosap,1,1,,inactive
Prosap,2,11,,inactive
CG32037,1,2,,inactive
Ada1-1 + Ada1-2,1,4,,inactive
Ada1-1 + Ada1-2,2,7,,inactive
Ada1-1 + Ada1-2,3,8,,inactive
Lst8,1,6,,inactive
CG14401,1,5,,inactive
CG14401,2,5,,inactive
CG14401,3,10,,inactive
CG8191 + CG12379,1,9,,inactive
timeout,1,15,,inactive
timeout,2,7,,inactive
timeout,3,3,,inactive
timeout,4,3,,inactive
timeout,5,2,,inactive
timeout,6,10,,inactive
CG7536,1,9,,inactive
CG2267,1,8,,inactive
eag,1,17,,inactive
eag,2,13,,inactive
eag,3,2,,inactive
